Assay results taken from paper PMC10786037, “Autoinhibition in the Signal Transducer CIN85 Modulates B Cell Activation” (Journal of the American Chemical Society, 2023).

By UniProt entry, the sequences of proteins in these tests, tags left out. Where a name states a change or a piece, a line headed by the entry shows the natural chain unless it says otherwise.
UniProt Q96B97: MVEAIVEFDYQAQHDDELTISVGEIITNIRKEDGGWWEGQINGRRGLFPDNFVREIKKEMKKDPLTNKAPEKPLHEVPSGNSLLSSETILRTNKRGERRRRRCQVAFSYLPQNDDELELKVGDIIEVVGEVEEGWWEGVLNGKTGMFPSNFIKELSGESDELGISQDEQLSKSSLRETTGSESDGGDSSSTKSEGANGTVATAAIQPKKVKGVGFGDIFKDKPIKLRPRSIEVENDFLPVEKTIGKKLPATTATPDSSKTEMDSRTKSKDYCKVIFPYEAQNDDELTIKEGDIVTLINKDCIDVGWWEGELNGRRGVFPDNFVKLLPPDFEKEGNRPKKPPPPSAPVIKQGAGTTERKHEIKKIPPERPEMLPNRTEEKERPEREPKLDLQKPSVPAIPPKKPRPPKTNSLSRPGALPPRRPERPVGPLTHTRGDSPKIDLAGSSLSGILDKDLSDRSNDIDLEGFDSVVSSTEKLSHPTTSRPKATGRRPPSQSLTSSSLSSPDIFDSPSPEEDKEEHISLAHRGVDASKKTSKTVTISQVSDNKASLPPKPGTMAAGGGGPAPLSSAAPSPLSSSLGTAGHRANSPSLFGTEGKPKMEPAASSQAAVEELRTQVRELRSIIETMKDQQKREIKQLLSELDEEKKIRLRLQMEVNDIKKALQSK
UniProt Q8WV28: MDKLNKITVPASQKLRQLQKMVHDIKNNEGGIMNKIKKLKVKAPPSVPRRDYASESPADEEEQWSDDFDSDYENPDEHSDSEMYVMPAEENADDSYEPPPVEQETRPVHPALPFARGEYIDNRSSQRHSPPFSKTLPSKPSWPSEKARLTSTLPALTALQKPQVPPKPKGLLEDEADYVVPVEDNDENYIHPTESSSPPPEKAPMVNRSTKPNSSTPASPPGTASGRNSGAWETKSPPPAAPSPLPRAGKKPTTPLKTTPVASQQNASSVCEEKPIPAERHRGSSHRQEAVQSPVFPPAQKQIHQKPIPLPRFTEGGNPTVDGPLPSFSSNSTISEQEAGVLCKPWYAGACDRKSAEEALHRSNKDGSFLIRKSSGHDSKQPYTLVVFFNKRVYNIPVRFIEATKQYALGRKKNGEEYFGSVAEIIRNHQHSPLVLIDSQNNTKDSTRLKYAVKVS

Assays:
[1] = target: full-length citrine (cit)-CIN85-S230A (human) (UniProt Q96B97); assay: affinity purification with mass spectrometry; CIN85 purified from lysates of DG75 B cells expressing cit-CIN85 or cit-CIN85-S230A, resting and stimulated state; label-free mass spectrometry
[2] = target: full-length citrine (cit)-CIN85 (human) (UniProt Q96B97); assay: as above

“Src homology 2 domain-containing leukocyte protein of 65 kDa (SLP65) (from UniProt Q8WV28 1-456)” was tested, and the binding [1] was “binds” and the binding [2] was “binds”.

These are yes or no findings as the source states them, for the method shown. In cells and extracts the contact can be indirect. A yes stands for co-enrichment or nearness to the bait. Other partners may have been found.
